Reference: patent publication US10563263B2, “Genetic polymorphisms associated with statin response and cardiovascular diseases, methods of detection and uses thereof” (CELERA CORPORATION, priority 2010, dated 2020)
The source gives many values for each of these; only a part stands here.

System: CVD (CHD or stroke)
Assay: WOSCOPS: SNP by pravastatin treatment interaction, logistic regression (synergy index), CVD endpoint
Type: in vivo, human
Description: CARE was a secondary prevention trial and WOSCOPS was a primary prevention trial.
The CHD endpoint was defined in the analyses herein of CARE as a composite endpoint of fatal CHD, definite non-fatal MI, or revascularization, and was defined in the analyses herein of WOSCOPS as a composite endpoint of death from CHD, nonfatal MI, or revascularization. In both the CARE and WOSCOPS analyses herein, the CVD endpoint was defined as a composite endpoint of CHD or stroke. […] Revascularization, which can include percutaneous transluminal coronary angioplasty (PTCA), stent placement, and coronary artery bypass graft (CABG), are medical interventions that indicate the presence of CHD.
Cohort and case-only study designs were used to identify SNPs associated with response to statin treatment.
For each SNP, a logistic regression model having treatment status as the dependent variable and SNP as the independent predictor variable was performed, with terms for age, sex and race included in the model as covariates. The anti-log of the regression coefficient corresponding to the SNP is an estimate of the synergy index (SI) (Davis et al., “Imputing gene-treatment interactions when the genotype distribution is unknown using case-only and putative placebo analyses-a new method for the Genetics of Hypertension Associated Treatment (GenHAT) study”, Statistics in Medicine 23: (2004), pages 2413-2427). The SI is a ratio of odds ratios: for example in the CARE and WOSCOPS studies, the SI represents the factor by which the odds-ratio of statin treatment, compared with placebo, among major homozygous individuals is multiplied by in order to obtain the odds-ratio of treatment vs. placebo among heterozygous individuals; and multiplied by a second time to obtain the odds-ratio of treatment vs. placebo in minor homozygous individuals. […] In a randomized clinical trial, genotype and treatment are independent by design.

CC[C@H](C)C(=O)O[C@H]1C[C@H](O)C=C2C=C[C@H](C)[C@H](CC[C@@H](O)C[C@@H](O)CC(=O)O)[C@H]21 [Pravastatin, pravastatin]
OR (rs9309988, Imputed, allele G, DOM model, WOSCOPS): 2.42 | OR (rs9309989, Genotyped, allele C, DOM model, WOSCOPS): 2.42 | OR (rs9310221, Imputed, allele A, DOM model, WOSCOPS): 1.531 | OR (rs9327555, Imputed, allele T, DOM model, WOSCOPS): 0.6021 | OR (rs9454967, Imputed, allele G, ADD model, WOSCOPS): 2.387 | OR (rs9454967, Imputed, allele G, DOM model, WOSCOPS): 2.904 | OR (rs9471295, Imputed, allele T, DOM model, WOSCOPS): 1.488 | OR (rs9477007, Imputed, allele A, ADD model, WOSCOPS): 1.357 | OR (rs9487279, Imputed, allele T, DOM model, WOSCOPS): 0.5667 | OR (rs9555973, Imputed, allele G, ADD model, WOSCOPS): 0.5702 | OR (rs9555973, Imputed, allele G, DOM model, WOSCOPS): 0.5463 | OR (rs9557510, Imputed, allele G, ADD model, WOSCOPS): 1.582 | OR (rs9557510, Imputed, allele G, DOM model, WOSCOPS): 1.775 | OR (rs9560584, Imputed, allele T, DOM model, WOSCOPS): 0.5572 | OR (rs9588770, Imputed, allele T, DOM model, WOSCOPS): 0.497 | OR (rs9588848, Imputed, allele C, ADD model, WOSCOPS): 0.5758 | OR (rs9588848, Imputed, allele C, DOM model, WOSCOPS): 0.554 | OR (rs9812206, Imputed, allele G, ADD model, WOSCOPS): 0.3883 | OR (rs9812206, Imputed, allele G, DOM model, WOSCOPS): 0.3876 | OR (rs9813552, Imputed, allele G, ADD model, WOSCOPS): 0.3826 | OR (rs9813552, Imputed, allele G, DOM model, WOSCOPS): 0.3816 | OR (rs9815037, Imputed, allele T, ADD model, WOSCOPS): 0.3819 | OR (rs9815037, Imputed, allele T, DOM model, WOSCOPS): 0.3809 | OR (rs9825349, Imputed, allele A, ADD model, WOSCOPS): 0.3819 | OR (rs9825349, Imputed, allele A, DOM model, WOSCOPS): 0.3809 | OR (rs9834217, Imputed, allele T, ADD model, WOSCOPS): 0.3819 | OR (rs9834217, Imputed, allele T, DOM model, WOSCOPS): 0.3809 | OR (rs9840460, Imputed, allele T, ADD model, WOSCOPS): 0.3819 | OR (rs9840460, Imputed, allele T, DOM model, WOSCOPS): 0.3809 | OR (rs9840756, Imputed, allele A, ADD model, WOSCOPS): 0.3808 | OR (rs9840756, Imputed, allele A, DOM model, WOSCOPS): 0.3798 | OR (rs9844801, Imputed, allele C, DOM model, WOSCOPS): 2.42 | OR (rs9869187, Imputed, allele C, ADD model, WOSCOPS): 0.4258 | OR (rs9869187, Imputed, allele C, DOM model, WOSCOPS): 0.4271 | OR (rs9872327, Imputed, allele T, DOM model, WOSCOPS): 2.42 | OR (rs9881685, Imputed, allele A, ADD model, WOSCOPS): 0.377 | OR (rs9881685, Imputed, allele A, DOM model, WOSCOPS): 0.3761 | OR (rs9909499, Imputed, allele C, DOM model, WOSCOPS): 1.559 | OR (rs9911847, Imputed, allele G, DOM model, WOSCOPS): 0.6877 | OR (rs9946886, Imputed, allele G, REC model, WOSCOPS): 0.3262 | OR (rs9958823, Imputed, allele A, ADD model, WOSCOPS): 1.444 | OR (rs9965248, Imputed, allele T, ADD model, WOSCOPS): 1.399 | OR (rs10941126 allele G, DOM model, Imputed, WOSCOPS): 0.309 | OR (rs10947980 allele G, ADD model, Imputed, WOSCOPS): 0.6089 | OR (rs11059376 allele T, ADD model, Imputed, WOSCOPS): 1.592 | OR (rs11072995 allele T, REC model, Imputed, WOSCOPS): 2.796 | OR (rs11081202 allele G, REC model, Genotyped, WOSCOPS): 2.426 | OR (rs11124962 allele A, DOM model, Imputed, WOSCOPS): 1.812 | OR (rs11178531 allele A, ADD model, Imputed, WOSCOPS): 0.7781 | OR (rs11178531 allele A, DOM model, Imputed, WOSCOPS): 0.6138 | OR (rs11178583 allele A, ADD model, Imputed, WOSCOPS): 0.6776 | OR (rs11178583 allele A, DOM model, Imputed, WOSCOPS): 0.6103 | OR (rs11178589 allele T, ADD model, Imputed, WOSCOPS): 0.6759 | OR (rs11178589 allele T, DOM model, Imputed, WOSCOPS): 0.6066 | OR (rs11178594 allele C, ADD model, Imputed, WOSCOPS): 0.6841 | OR (rs11178594 allele C, DOM model, Imputed, WOSCOPS): 0.62 | OR (rs11178602 allele T, ADD model, Imputed, WOSCOPS): 0.6841 | OR (rs11178602 allele T, DOM model, Imputed, WOSCOPS): 0.62 | OR (rs11178648 allele T, ADD model, Imputed, WOSCOPS): 0.6858 | OR (rs11178648 allele T, DOM model, Imputed, WOSCOPS): 0.6021 | OR (rs11198877 allele T, DOM model, Imputed, WOSCOPS): 1.444 | OR (rs11198942 allele T, DOM model, Imputed, WOSCOPS): 1.458 | OR (rs11221075 allele A, ADD model, Imputed, WOSCOPS): 0.7175 | OR (rs11242020 allele T, DOM model, Imputed, WOSCOPS): 0.7107 | OR (rs11242021 allele T, DOM model, Imputed, WOSCOPS): 0.6887 | OR (rs11242022 allele T, DOM model, Imputed, WOSCOPS): 0.6944 | OR (rs11242023 allele T, DOM model, Imputed, WOSCOPS): 0.6944 | OR (rs11576627 allele T, ADD model, Imputed, WOSCOPS): 1.4 | OR (rs11576627 allele T, DOM model, Imputed, WOSCOPS): 1.426 | OR (rs11630050 allele G, REC model, Imputed, WOSCOPS): 2.977 | OR (rs11633024 allele C, REC model, Imputed, WOSCOPS): 2.977 | OR (rs11636298 allele G, REC model, Imputed, WOSCOPS): 3.183 | OR (rs11637363 allele C, REC model, Imputed, WOSCOPS): 2.964 | OR (rs11637813 allele A, REC model, Imputed, WOSCOPS): 2.977 | OR (rs11638043 allele C, REC model, Imputed, WOSCOPS): 2.964 | OR (rs11638115 allele A, REC model, Imputed, WOSCOPS): 2.796 | OR (rs11682946 allele A, ADD model, Imputed, WOSCOPS): 5.356 | OR (rs11682946 allele A, DOM model, Imputed, WOSCOPS): 5.538 | OR (rs11717157 allele T, ADD model, Imputed, WOSCOPS): 1.45 | OR (rs11724055 allele A, DOM model, Imputed, WOSCOPS): 0.7804 | OR (rs11743355 allele C, ADD model, Imputed, WOSCOPS): 0.309 | OR (rs11743355 allele C, DOM model, Imputed, WOSCOPS): 0.309 | OR (rs11746806 allele T, ADD model, Imputed, WOSCOPS): 0.309 | OR (rs11746806 allele T, DOM model, Imputed, WOSCOPS): 0.309 | OR (rs11746959 allele T, ADD model, Imputed, WOSCOPS): 0.309 | OR (rs11746959 allele T, DOM model, Imputed, WOSCOPS): 0.309 | OR (rs11749272 allele T, DOM model, Imputed, WOSCOPS): 0.7035 | OR (rs11853619 allele C, REC model, Imputed, WOSCOPS): 3.183 | OR (rs11856780 allele A, REC model, Imputed, WOSCOPS): 3.183 | OR (rs11901899 allele A, DOM model, Imputed, WOSCOPS): 1.822 | OR (rs11903290 allele C, REC model, Imputed, WOSCOPS): 1.901 | OR (rs11909480 allele G, ADD model, Imputed, WOSCOPS): 0.5964 | OR (rs11909480 allele G, DOM model, Imputed, WOSCOPS): 0.61 | OR (rs11910289 allele T, ADD model, Imputed, WOSCOPS): 2.254 | OR (rs11910289 allele T, DOM model, Imputed, WOSCOPS): 2.226 | OR (rs11926319 allele G, DOM model, Imputed, WOSCOPS): 0.5229 | OR (rs11933744 allele T, REC model, Imputed, WOSCOPS): 3.01 | OR (rs11934919 allele C, REC model, Imputed, WOSCOPS): 3.01 | OR (rs11934957 allele C, REC model, Imputed, WOSCOPS): 3.01 | OR (rs16938626 allele G, DOM model, Imputed): 0.6482 | OR (rs16964300 allele G, ADD model, Imputed): 0.6489 | OR (rs16964300 allele G, DOM model, Imputed): 0.5081 | OR (rs16986282 allele G, DOM model, Imputed): 0.6518 | OR (rs17007620 allele G, ADD model, Imputed): 1.684 | OR (rs17007620 allele G, DOM model, Imputed): 1.898 | OR (rs17014326 allele G, DOM model, Imputed): 0.6773 | OR (rs17047957 allele C, DOM model, Imputed): 1.575 | OR (rs17073341 allele A, ADD model, Imputed): 1.335 | OR (rs17073341 allele A, DOM model, Imputed): 1.335 | OR (rs17138702 allele G, ADD model, Imputed): 0.7112 | OR (rs17189710 allele T, ADD model, Imputed): 1.407 | OR (rs17189710 allele T, REC model, Imputed): 1.414 | OR (rs17310176 allele T, ADD model, Imputed): 0.8153 | OR (rs17310176 allele T, DOM model, Imputed): 0.8122 | OR (rs17358860 allele A, DOM model, Imputed): 0.7804 | OR (rs17370541 allele T, REC model, Imputed): 1.782 | OR (rs17530747 allele T, DOM model, Imputed): 0.7249 | OR (rs17649114 allele C, DOM model, Imputed): 1.27 | OR (rs17766172 allele A, REC model, Imputed): 0.6013
